Assay results reported in patent US5837692.

Target: Egr-1 (NIH3T3 nuclear extract) (Mus musculus) (UniProt P08046)
Test: EMSA
Settings: 20 mM HEPES pH 7.5, 70 mM KCl, 5 mM MgCl2, 100 uM ZnCl2, room temperature; retardation proportional to Egr-1 level; protein in an extract; protein details: endogenous or pCMV-Egr-1 expressed; label: 32P 5'-end

“GATCTCGCGGGGGCGAGGGGGATC (double strand) [GCE oligonucleotide (Egr-1 binding site)]”: binds.

Where cells or extracts were used, other partners may take part.
